Laboratory results reported in article doi:10.1101/2024.06.25.600625.
No constants are given. Whether binding was seen depends on the method and setting. Some entries that bind do so weakly or less than the wild type.

Biological target: N-terminally FlAsH-labeled Aha1 (UniProt O95433)
Assay: fluorescence polarisation

binding, binds:
human Hsp90α Y197E (from UniProt P07900 1-732)
human Hsp90α Y38F,Y61F,Y197E (from UniProt P07900 1-732)
human Hsp90α Y38E (from UniProt P07900 1-732)
human Hsp90α Y197F (from UniProt P07900 1-732)
human Hsp90α Y38F,Y61F,Y197F (from UniProt P07900 1-732)
human Hsp90α Y38F,Y61E,Y197E (from UniProt P07900 1-732)
human Hsp90α Y38F (from UniProt P07900 1-732)
wild-type human Hsp90α (from UniProt P07900 1-732)
human Hsp90α Y38E,Y61F,Y197E (from UniProt P07900 1-732)
human Hsp90α Y61F (from UniProt P07900 1-732)
human Hsp90α Y61E (from UniProt P07900 1-732)

Biological target: wild-type human Hsp90α (human) (UniProt P07900)
Assay: fluorescence polarisation

binding, binds:
unlabeled Aha1 (from UniProt O95433 1-338)
